# Experimental data reported in doi:10.1101/661488.
# Results are given in words; binding and its absence hold for the method and conditions named. In cells and extracts the contact can be indirect. Here binding means that the protein was enriched with, or labelled near, the bait; the list need not be complete.
# B1: PSMD7 (proteasomal protein) (protein, UniProt P26516 1-321)
# chain: MPELAVQKVVVHPLVLLSVVDHFNRIGKVGNQKRVVGVLLGSWQKKVLDVSNSFAVPFDEDDKDDSVWFLDHDYLENMYGMFKKVNARERIVGWYHTGPKLHKNDIAINELMKRYCPNSVLVIIDVKPKDLGLPTEAYISVEEVHDDGTPTSKTFEHVTSEIGAEEAEEVGVEHLLRDIKDTTVGTLSQRITNQVHGLKGLNSKLLDIRSYLEKVASGKLPINHQIIYQLQDVFNLLPDASLQEFVKAFYLKTNDQMVVVYLASLIRSVVALHNLINNKIANRDAEKKEGQEKEESKKERKDDKEKEKSDAAKKEEKKEKK
# B2: PSMD13 (proteasomal protein) (protein, UniProt Q9WVJ2 1-376)
# chain: MKDVPAFLQQSQSSGPGQAAVWHRLEELYTKKLWHQLTLEVLDFVQDPCFAQGDGLIKLYENFISEFEHRVNPLSLVEIILHVVRQMTDPNVALTFLEKTREKVKSSDEAVILCKTAIGALKLNIGDLQATKETIEDVEEMLNNLPGVTSVHSRFYDLSSKYYQTIGNHASYYKDALRFLGCVDIKDLPVSEQQERAFTLGLAGLLGEGVFNFGELLMHPVLESLRDTDRQWLIDTLYAFNSGAVDRFQTLKCAWGQQPDLAANEAQLLRKIQLLCLMEMTFTRPANHRQLTFEEIAKSAKITVNKVELLVMKALSVGLVRGSIDEVDKRVHMTWVQPRVLDLQQIKGMKDRLELWCTDVKSMEMLVEHQAQDILT
# B3: GPHN (postsynaptic protein) (protein, UniProt Q8BUV3 1-769)
# chain: MATEGMILTNHDHQIRVGVLTVSDSCFRNLAEDRSGINLKDLVQDPSLLGGTISAYKIVPDEIEEIKETLIDWCDEKELNLILTTGGTGFAPRDVTPEATKEVIEREAPGMALAMLMGSLNVTPLGMLSRPVCGIRGKTLIINLPGSKKGSQECFQFILPALPHAIDLLRDAIVKVKEVHDELEDLPSPPPPLSPPPTTSPHKQTEDKGVQCEEEEEEKKDSGVASTEDSSSSHITAAALAAKIPDSIISRGVQVLPRDTASLSTTPSESPRAQATSRLSTASCPTPKQIRRPDESKGVASRVGSLKARLPSCSSTYSVSEVQSRCSSKENILRASHSAVDITKVARRHRMSPFPLTSMDKAFITVLEMTPVLGTEIINYRDGMGRVLAQDVYAKDNLPPFPASVKDGYAVRAADGPGDRFIIGESQAGEQPTQTVMPGQVMRVTTGAPIPCGADAVVQVEDTELIRESDDGTEELEVRILVQARPGQDIRPIGHDIKRGECVLAKGTHMGPSEIGLLATVGVTEVEVNKFPVVAVMSTGNELLNPEDDLLPGKIRDSNRSTLLATIQEHGYPTINLGIVGDNPDDLLNALNEGISRADVIITSGGVSMGEKDYLKQVLDIDLHAQIHFGRVFMKPGLPTTFATLDIDGVRKIIFALPGNPVSAVVTCNLFVVPALRKMQGILDPRPTIIKARLSCDVKLDPRPEYHRCILTWHHQEPLPWAQSTGNQMSSRLMSMRSANGLLMLPPKTEQYVELHKGEVVDVMVIGRL
# Target: AMPKα (α catalytic subunit of AMPK) (mouse (endogenous in DRG))
# Experiment: affinity purification with mass spectrometry
row,Binder,binding
1,B1,binds
2,B2,binds
3,B3,binds
